Experimental data as given in publication PMC9023524.

Molecular target: BirA*-ASPH (myc-BirA* fused to the N-terminus of junctin)
Assay: proximity labelling; BioID in living mouse hearts: AAV9-Tnnt2 BirA*-ASPH or BirA*-TRDN given at P1, biotin from P21 to P28, hearts collected at P28; 0.5 mg protein extract on streptavidin Dynabeads, washed with RIPA buffer, on-bead digestion, LC-MS/MS; control AAV-GFP; one replicate pooled from three hearts for each sensor

B1: TRDN (triadin), recovered as a BioID hit (protein, UniProt E9Q9K5 1-693)
chain: MTEITAEGNASTTTTVIDNKNGCIPKSPGKVLKRSVTEDIVTTFSSPAAWLLVIALIITWSAVAIVMFDLVDYKNFSASSIAKIGSDPLKLVNDAVEETTDWIYGFFSLLSDIISSEGDEDDEDADEDIDKGEIEEPPLKRKEIHQEKAEKEEKPEKKIQTKASHREREKGKEKLKGEKPEKTATHKEKLEKKERPETKMMAKEDKKIKTKEKTEEKAKKEMKVGKQEKVKPTAAKAKETPKTPPKARKKDDKEMPAVHEQKDQYAFCRYMIDMFVHGDLKPGQSPVMPPPSLTPSKPALSTTALEEKEKEEKKKMEKKDTSDTKKKEKEVKKKSEETTIDGKGKEPGKPPETKQMTAKLTTQAAARKDEKKEESKKMRKPTEEQPKGKKQEKKEKHIEPAKTPKKEHPGPSEKLKKAKAEQAKEEIAAASTKKALHGKKEEKAKTVEQEVKKEKSGKSSSDLKDKEVKKEKSGKSSSDLKDKEPQLKNEEKSKPQVKKEAKLASSDKGQTRKQNITRPEQVIPHVKPEKAEHQEKGHPSIKKDKPKPSSKGAPEVPDSGKKKIEKSEKESKVPTREENLQVYNVTKAEKPGKIPKDSKEAPASKKDKEDSKEAPTSKKDKEDSKDVPHSKKDKEVTDDVSSPKKQTRPISFFQCVYLNGYNGYGFQFPVTPVQQPGENPGKTNSPGQKQQEQ
Question: For B1, which binding is on record?
Answer: binds

These are yes or no findings as the source states them, for the method shown. Binding seen in cells or lysates may run through a third protein. A yes stands for co-enrichment or nearness to the bait. Other partners may have been found.
